Where “and” joins values, the source holds several entries; their conditions need not be identical. Equal entries are not always repeated. Screen size: about 220,000 compounds; about 770 (0.35%) were called active. Inconclusive results, whose numbers are uncertain, are shown with a selection of clear calls. Cut-off read from the data, not from the text of the source: active = binding response below about 49% or above about 150%; inconclusive = no clear call, values can overlap the other calls; inactive = in between.
target: Guanine nucleotide-binding protein G(o) subunit alpha (Homo sapiens) (UniProt P09471); assay: RGS7-Galphao binding modulators, primary screen, biochemical, multiplexed bead flow cytometry (AID 1439); settings: at 10 µM, actives lie on both sides;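 note: fluorescent Galphao held in activated GDP-AlF4 state binding bead-coupled RGS7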

By UniProt entry, the sequences of proteins in these tests, tags left out.
UniProt P09471, whole entry, looked up: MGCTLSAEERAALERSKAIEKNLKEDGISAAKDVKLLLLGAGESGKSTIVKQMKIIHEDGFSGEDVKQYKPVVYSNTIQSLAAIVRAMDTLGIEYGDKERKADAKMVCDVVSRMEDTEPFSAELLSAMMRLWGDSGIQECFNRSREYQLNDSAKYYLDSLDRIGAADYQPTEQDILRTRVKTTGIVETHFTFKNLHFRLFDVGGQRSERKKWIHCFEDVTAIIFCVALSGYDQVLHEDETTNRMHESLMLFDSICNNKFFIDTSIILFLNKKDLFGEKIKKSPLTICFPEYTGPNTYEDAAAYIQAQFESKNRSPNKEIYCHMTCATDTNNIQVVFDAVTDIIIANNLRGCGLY

Question: For `CCOC(=O)/C(C#N)=C\c1cc(OC)c(OC)cc1[N+](=O)[O-]`, which binding response (% of control) is on record?
Answer: inactive: 105%

Question: `COc1ccc([N+](=O)[O-])cc1NC(=O)c1cc(C)c(C)o1` was tested. Which binding response (% of control) did it give?
Answer: inconclusive: 65.6%

Question: How did the binding response (% of control) turn out when `O=C(O)c1ccc(NC(=O)c2cn(-c3ccccc3)nc2-c2ccc(Br)cc2)cc1` was run?
Answer: inconclusive: 108%

Question: With `Cc1nn(-c2ccccc2)c(NC(=O)C(C)C)c(-c2ccccc2)c1=O` as the compound, how does the binding response (% of control) read?
Answer: inconclusive: 135%

Question: For `CCc1ccc(N(C(=O)c2snc(C(N)=O)c2N)C(C(=O)NCCC(C)C)c2c[nH]c3ccccc23)cc1` (configuration not stated), which binding response (% of control) is on record?
Answer: inactive: 99.6%

Question: `COc1ccc(Cc2nnc(N/N=C(\C)c3ccccc3)[nH]c2=O)cc1OC` was tested. Which binding response (% of control) did it give?
Answer: inconclusive: 79.9%

Question: For `CCOC(=O)c1c(O)c(O)c(C(=O)OCC)n1-c1ccccc1`, which binding response (% of control) is on record?
Answer: inconclusive: 105%

Question: `O=S(=O)(NC1CCCCCCC1)c1cccs1` was tested. Which binding response (% of control) did it give?
Answer: inactive: 99.7%

Question: How did the binding response (% of control) turn out when `CCOC(=O)c1nn(-c2ccc(C)cc2)cc1C(=O)c1ccccc1` was run?
Answer: inactive: 96.2%

Question: How did the binding response (% of control) turn out when `COc1ccc([N+](=O)[O-])cc1NC(=O)/C=C/C(=O)O` was run?
Answer: inactive: 92.1%

Question: Which binding response (% of control) does the source give for `O=c1c(/C=N/O)coc2ccc(Cl)cc12` here?
Answer: inconclusive: 121%

Question: `CCCCc1ccc(NC(=O)N2CCNC(=O)C2CC(=O)Nc2ccsc2C(=O)OC)cc1` (configuration not stated) was tested. Which binding response (% of control) did it give?
Answer: inconclusive: 110%

Question: How did the binding response (% of control) turn out when `Cc1ccc(-n2cc(CN3CCNC(=O)CC3)c(-c3ccc(F)cc3)n2)cc1` was run?
Answer: inconclusive: 121%

Question: Which binding response (% of control) does the source give for `COc1ccc(NS(=O)(=O)c2ccc3c(c2)CCO3)cc1` here?
Answer: inconclusive: 90.4%

Question: `COc1ccc(OC)c(S(=O)(=O)N2CCC(C(=O)N(C)Cc3ccccc3)CC2)c1` was tested. Which binding response (% of control) did it give?
Answer: inconclusive: 45.6%

Question: `COc1ccc(C(=S)N2CCN(c3cccc(Cl)c3)CC2)cc1` was tested. Which binding response (% of control) did it give?
Answer: inconclusive: 92% and inconclusive: 85.7%

Question: `O=C(COC(=O)c1cnc(Cl)c(Cl)c1)NCc1cccs1` was tested. Which binding response (% of control) did it give?
Answer: inconclusive: 118%

Question: `C[C@@H]1C[C@@H]2OC(=O)[C@]3(C)[C@H]2[C@@H](OC3(C)O)[C@]2(C)C(=O)CC[C@H]12` (some centres not stated) was tested. Which binding response (% of control) did it give?
Answer: inconclusive: 107%

Question: For `CCOc1cc2c(cc1OCC)C(c1ccc(OC)c(OC)c1)N(c1ccc(C(=O)O)cc1)C(=O)C2` (configuration not stated), which binding response (% of control) is on record?
Answer: inconclusive: 98.8%

Question: `CC(=O)N[C@@H](Cc1ccc(OC(F)(F)F)cc1)C(=O)O` was tested. Which binding response (% of control) did it give?
Answer: inconclusive: 131%

Question: `Cc1ccc(C2CC(c3ccccc3)=NN2C(=S)Nc2ccccc2)o1` (configuration not stated) was tested. Which binding response (% of control) did it give?
Answer: active: -7.6%

Question: How did the binding response (% of control) turn out when `C=C(C)CNC(=S)Nc1ccc(S(=O)(=O)Nc2cnc3ccccc3n2)cc1` was run?
Answer: inconclusive: 80.6%

Question: `CSc1ncccc1C(=O)OCC(=O)NCc1ccc2c(c1)OCO2` was tested. Which binding response (% of control) did it give?
Answer: inactive: 102%

Question: For `CCN(CC)C(=O)CC(c1ccc(N(C)C)cc1)c1c(O)cc(OC)cc1OC` (configuration not stated), which binding response (% of control) is on record?
Answer: inconclusive: 124%

Question: Which binding response (% of control) does the source give for `O=C(NCc1ccccc1)c1nc2ccccc2s1` here?
Answer: inconclusive: 93.5%

Question: How did the binding response (% of control) turn out when `O=C(N/N=C/C=C/c1ccc2c(c1)OCO2)C(O)c1ccccc1` (configuration not stated) was run?
Answer: inconclusive: 98.3%

Question: How did the binding response (% of control) turn out when `CC(=O)Cn1nnc(-c2ccc(C(F)(F)F)cc2)n1` was run?
Answer: inconclusive: 92.9%

Question: With `Cc1c(NC(=S)NC(=O)C(C)(C)C)c(=O)n(-c2ccccc2)n1C` as the compound, how does the binding response (% of control) read?
Answer: inactive: 98.6%

Question: With `CCC(C)NCC(=O)Nc1sc2c(c1C(N)=O)CCC2` (configuration not stated) as the compound, how does the binding response (% of control) read?
Answer: inactive: 100%

Question: How did the binding response (% of control) turn out when `Cc1ccc(C(C)C)c(OCc2ccc(C(=O)N/N=C/c3ccc(C(=O)O)cc3)cc2)c1` was run?
Answer: inconclusive: 128%

Question: For `O=C(O)c1cccc(NC(=S)N/N=C/c2ccccn2)c1`, which binding response (% of control) is on record?
Answer: inconclusive: 106%

Question: `O=C(NN1C(=O)/C(=C/C=C/c2ccco2)SC1=S)c1ccncc1` was tested. Which binding response (% of control) did it give?
Answer: inconclusive: 128%

Question: With `O=C(Nc1ccc(F)cc1)Nc1ccc(Oc2ncnc3cc(Cl)ccc23)nc1` as the compound, how does the binding response (% of control) read?
Answer: inconclusive: 65.9%

Question: How did the binding response (% of control) turn out when `CC(CN1CCCC1)C(=O)NN` (configuration not stated) was run?
Answer: inconclusive: 110%

Question: How did the binding response (% of control) turn out when `COC(=O)/C=C/c1ccccc1S(=O)(=O)N(Cc1ccccc1)Cc1ccco1` was run?
Answer: inconclusive: 121%

Question: How did the binding response (% of control) turn out when `COc1ccc(C(=O)NNC(=O)CCCCC(=O)NNC(=O)c2ccc(OC)cc2)cc1` was run?
Answer: inconclusive: 123%

Question: With `COC(=O)CNC(=O)COC(=O)c1cc(Cl)cc(Cl)c1N` as the compound, how does the binding response (% of control) read?
Answer: inactive: 102%

Question: `O=C(CSc1nnc2ccccn12)NCCc1ccc(F)cc1` was tested. Which binding response (% of control) did it give?
Answer: inconclusive: 78.2%

Question: For `CCN(CC)c1ccc(NC(=O)c2ccco2)cc1`, which binding response (% of control) is on record?
Answer: inactive: 99.8%

Question: `CCOC(=O)c1cn2nc(-c3ccc(OC)cc3)cc2nc1C1CCN(C(=O)OC(C)(C)C)CC1` was tested. Which binding response (% of control) did it give?
Answer: inactive: 90.7%

Question: For `O=Cc1[nH]c2ccccc2c1N(C(=O)CCl)c1ccccc1`, which binding response (% of control) is on record?
Answer: inconclusive: 98.1%

Question: How did the binding response (% of control) turn out when `Cc1ccc(-n2c3c(cc(C(=O)NC4CCSC4=O)c2=O)C(=O)CCC3)cc1` (configuration not stated) was run?
Answer: inactive: 95.8%

Question: For `COc1cc(/C=C/C(=O)O)cc(S(=O)(=O)Nc2ccccc2Oc2ccccc2)c1OC`, which binding response (% of control) is on record?
Answer: inconclusive: 72.2%

Question: Which binding response (% of control) does the source give for `COc1cccc(NC(=O)N2CCN(S(C)(=O)=O)CC2)c1` here?
Answer: inconclusive: 105%

Question: Which binding response (% of control) does the source give for `CCCSc1nc(=S)n(Cc2ccccc2)c(C)c1C(C)=O` here?
Answer: inconclusive: 97.2%

Question: For `COc1ccc(OC)c(/C=N/NC(=O)CSc2nnc(C)n2-c2ccccc2)c1`, which binding response (% of control) is on record?
Answer: inactive: 105%

Question: With `COc1ccc(C2CC(c3ccccc3OC(C)=O)=NN2C(C)=O)cc1` (configuration not stated) as the compound, how does the binding response (% of control) read?
Answer: inconclusive: 89.4%

Question: For `O=C(N/N=C/c1ccco1)c1cc(C2CC2)[nH]n1`, which binding response (% of control) is on record?
Answer: inconclusive: 207%

Question: `Cc1ccc(OCC(=O)NC(=S)Nc2ccc(Br)cn2)cc1` was tested. Which binding response (% of control) did it give?
Answer: inconclusive: 86.7%

Question: For `CCNc1nc(NCC)nc(Oc2ccc(C(=O)OC)cc2)n1`, which binding response (% of control) is on record?
Answer: inconclusive: 43.8%

Question: Which binding response (% of control) does the source give for `Nc1ccc2c(c1)Nc1ccccc1CC2` here?
Answer: inactive: 101%

Question: `CN(Cc1ccccc1)C(=O)COc1ccc(Br)cc1Cl` was tested. Which binding response (% of control) did it give?
Answer: inconclusive: 76.8%

Question: `COC(=O)c1ccc(C#Cc2ccccc2)o1` was tested. Which binding response (% of control) did it give?
Answer: inconclusive: 94.6%

Question: Which binding response (% of control) does the source give for `NC(=O)[C@@H]1CC2(CC(c3cccc(NC(=O)CC(c4ccccc4)c4ccccc4)c3)=NO2)CN1C(=O)COc1ccc(Cl)cc1` (some centres not stated) here?
Answer: inconclusive: 145%

Question: `c1csc(-c2noc(CN3CCc4sccc4C3)n2)c1` was tested. Which binding response (% of control) did it give?
Answer: inactive: 99.4%

Question: How did the binding response (% of control) turn out when `CCN1C(=O)NC2C1N(S(C)(=O)=O)CCN2S(C)(=O)=O` (configuration not stated) was run?
Answer: inactive: 97.6%

Question: How did the binding response (% of control) turn out when `COc1ccc(CN(C)CC(=O)Nc2ccc(Cl)cc2F)c(OC)c1` was run?
Answer: inconclusive: -202%
